Assay results as given in PMC2483295.

Sequences of proteins named here, by UniProt entry; tags and fusion partners are left off. A change or cut given only in a name is not applied to a line headed by its entry.
UniProt Q8S4Q6: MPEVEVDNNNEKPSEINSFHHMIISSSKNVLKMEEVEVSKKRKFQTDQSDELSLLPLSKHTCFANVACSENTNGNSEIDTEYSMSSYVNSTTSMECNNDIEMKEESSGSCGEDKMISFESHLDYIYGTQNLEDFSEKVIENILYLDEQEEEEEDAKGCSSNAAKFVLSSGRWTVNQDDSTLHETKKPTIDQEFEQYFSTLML

Assays:
[1] = target: T1, phyA-BD (Arabidopsis) (UniProt P14712); assay: two-hybrid; yeast Y187, β-galactosidase activity (Miller units); cultures with 10 µM PCB, 5 min red light pulse (12 µmol m^-2 s^-1), then 240 min dark; 5 min far-red pulse given 0, 60, 120 or 240 min after the red pulse
T1 sequence: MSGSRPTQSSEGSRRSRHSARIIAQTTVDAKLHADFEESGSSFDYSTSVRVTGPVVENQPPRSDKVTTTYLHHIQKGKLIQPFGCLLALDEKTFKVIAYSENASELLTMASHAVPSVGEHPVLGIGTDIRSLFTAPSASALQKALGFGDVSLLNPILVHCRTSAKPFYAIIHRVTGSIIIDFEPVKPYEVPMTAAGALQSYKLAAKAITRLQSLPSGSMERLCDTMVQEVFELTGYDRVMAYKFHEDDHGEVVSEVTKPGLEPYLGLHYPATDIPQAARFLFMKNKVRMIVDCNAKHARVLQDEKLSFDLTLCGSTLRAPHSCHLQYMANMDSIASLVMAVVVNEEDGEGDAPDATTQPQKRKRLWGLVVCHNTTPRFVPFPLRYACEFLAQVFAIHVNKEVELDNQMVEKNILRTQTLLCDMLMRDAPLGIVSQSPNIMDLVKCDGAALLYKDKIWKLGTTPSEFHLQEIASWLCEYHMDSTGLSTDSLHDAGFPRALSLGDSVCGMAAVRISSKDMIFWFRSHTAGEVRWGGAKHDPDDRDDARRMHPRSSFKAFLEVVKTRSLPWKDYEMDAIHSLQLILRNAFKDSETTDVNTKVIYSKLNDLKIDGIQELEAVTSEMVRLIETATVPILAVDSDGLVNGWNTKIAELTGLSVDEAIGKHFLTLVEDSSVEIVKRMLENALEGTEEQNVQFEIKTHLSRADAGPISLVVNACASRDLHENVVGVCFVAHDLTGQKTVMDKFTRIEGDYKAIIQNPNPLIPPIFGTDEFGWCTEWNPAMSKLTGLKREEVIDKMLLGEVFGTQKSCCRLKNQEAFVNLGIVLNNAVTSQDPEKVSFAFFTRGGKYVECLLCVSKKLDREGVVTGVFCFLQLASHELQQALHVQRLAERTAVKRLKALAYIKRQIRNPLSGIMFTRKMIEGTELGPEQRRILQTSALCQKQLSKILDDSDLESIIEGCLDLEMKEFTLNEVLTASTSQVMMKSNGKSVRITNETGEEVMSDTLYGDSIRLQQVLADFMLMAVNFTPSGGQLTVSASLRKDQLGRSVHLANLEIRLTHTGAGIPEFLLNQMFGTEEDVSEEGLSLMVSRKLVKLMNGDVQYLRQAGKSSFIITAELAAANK

[2] = target: T1, phyA-BD (Arabidopsis); assay: two-hybrid; yeast AH109, growth on L-W-H- plates with 1 mM 3-aminotriazole and 10 µM PCB, 3 d in 1 µmol m^-2 s^-1 red light (Pfr) or 13 µmol m^-2 s^-1 far-red light (Pr)

binding [1] | binding [2] | Substance
binds | – | AD-FHL (from UniProt A8MR65-2)
– | binds | FHY1 ΔNLS (yeast two-hybrid fusion) (from UniProt Q8S4Q6)

No constants are given. Whether binding was seen depends on the method and setting. Binding calls can cover weak binding; strength is not graded here. Where a sequence is shown, tags or fusion partners need not be part of it.
